From patent publication US20100092453A1, “Method of producing porous microparticles” (priority 2006, published 2010)

Assay: In vitro dry powder inhaler deposition, Andersen Cascade Impactor
Method: The pulmonary deposition of the dry powders was investigated using an Andersen Cascade Impactor (ACI) (1 ACFM Eight Stage Non-Viable Cascade Impactor, Graseby Andersen, Atlanta, Ga.). […] Size 3 hard gelatin capsules (Farillon Ltd., U.K.) were filled to approximately 50% with the dry powder (approximately 25 mg of powder). […] The amount of powder deposited on each stage of the impactor was determined by weight, UV analysis or HPLC analysis.

Molecule `Cc1cc(C)nc(NS(=O)(=O)c2ccc(N)cc2)n1` [Micronised sulfadimidine, sulfadimidine] has a fine particle fraction (sulfadimidine and sulfadimidine/lactose carrier blends) of 1.4±0.1% and a fine particle fraction (sulfadimidine powders (Examples 11, 12, raw, non-porous)) of 2.3±0.7%.
